Assay results as given in paper PMC6265779.

Experiments:
[1] = biological target: T1, φ6 protein P1 (bacteriophage φ6) (UniProt P11126); experiment: asymmetrical flow field-flow fractionation (AF4) with SDS-PAGE of fractions; NC (NC2 input or AF4-purified NC) treated with 25 mM EGTA, 1 mM ATP, RT, 30 min; AF4 in 10 mM potassium phosphate pH 7.2, 1 mM MgCl2, 150 mM NaCl, 20 mM EGTA; 22 °C
T1 sequence: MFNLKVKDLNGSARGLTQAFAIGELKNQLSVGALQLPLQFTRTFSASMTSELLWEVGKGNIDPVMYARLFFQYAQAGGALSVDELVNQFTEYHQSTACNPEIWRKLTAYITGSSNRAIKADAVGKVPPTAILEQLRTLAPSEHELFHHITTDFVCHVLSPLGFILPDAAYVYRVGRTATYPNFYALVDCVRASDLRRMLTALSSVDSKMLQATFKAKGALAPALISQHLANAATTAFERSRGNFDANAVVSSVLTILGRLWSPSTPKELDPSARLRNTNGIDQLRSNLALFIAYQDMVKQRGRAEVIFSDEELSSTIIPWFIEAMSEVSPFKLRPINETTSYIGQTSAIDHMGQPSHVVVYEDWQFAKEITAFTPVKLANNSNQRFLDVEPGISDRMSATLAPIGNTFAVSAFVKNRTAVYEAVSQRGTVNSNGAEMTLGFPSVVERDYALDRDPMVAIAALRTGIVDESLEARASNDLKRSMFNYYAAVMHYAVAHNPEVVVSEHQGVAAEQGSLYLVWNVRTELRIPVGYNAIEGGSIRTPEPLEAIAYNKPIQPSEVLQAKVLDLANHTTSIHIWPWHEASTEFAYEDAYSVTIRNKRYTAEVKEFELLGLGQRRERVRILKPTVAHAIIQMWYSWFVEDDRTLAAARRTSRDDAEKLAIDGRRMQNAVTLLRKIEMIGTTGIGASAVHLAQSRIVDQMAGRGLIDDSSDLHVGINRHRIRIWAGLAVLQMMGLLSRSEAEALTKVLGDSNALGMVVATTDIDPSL

[2] = biological target: T1, φ6 protein P1 (bacteriophage φ6); experiment: asymmetrical flow field-flow fractionation (AF4) with SDS-PAGE of fractions; Triton X-114-extracted φ6 virions (NC1 input, NC2 input); 10 mM potassium phosphate pH 7.2, 1 mM MgCl2, 0.1 mM CaCl2, 150 mM NaCl; 22 °C; proteins of the late-eluting NC peak seen by Coomassie-stained SDS-PAGE

φ6 protein P7 (bacteriophage φ6)
binding [1]: binds | binding [2]: binds

No constants are given. Whether binding was seen depends on the method and setting. Binding can be weak; no strength is given.
